In publication PMC5562444:
Results are given in words; binding and its absence hold for the method and conditions named. Binding seen in cells or lysates may run through a third protein. Some results given as binding are weak or reduced against the parent protein; the word gives no strength.

Chains of the proteins cited; added tags and fusions are not shown.
UniProt Q9BQ69: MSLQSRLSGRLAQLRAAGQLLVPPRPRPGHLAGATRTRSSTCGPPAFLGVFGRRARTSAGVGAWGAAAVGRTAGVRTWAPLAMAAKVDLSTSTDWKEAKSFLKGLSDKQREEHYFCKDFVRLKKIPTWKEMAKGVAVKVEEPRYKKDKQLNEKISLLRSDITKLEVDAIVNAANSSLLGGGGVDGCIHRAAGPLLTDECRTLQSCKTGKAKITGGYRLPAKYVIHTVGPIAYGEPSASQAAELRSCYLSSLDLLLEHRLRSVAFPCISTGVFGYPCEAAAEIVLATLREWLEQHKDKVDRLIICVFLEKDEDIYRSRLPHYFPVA
UniProt P19525: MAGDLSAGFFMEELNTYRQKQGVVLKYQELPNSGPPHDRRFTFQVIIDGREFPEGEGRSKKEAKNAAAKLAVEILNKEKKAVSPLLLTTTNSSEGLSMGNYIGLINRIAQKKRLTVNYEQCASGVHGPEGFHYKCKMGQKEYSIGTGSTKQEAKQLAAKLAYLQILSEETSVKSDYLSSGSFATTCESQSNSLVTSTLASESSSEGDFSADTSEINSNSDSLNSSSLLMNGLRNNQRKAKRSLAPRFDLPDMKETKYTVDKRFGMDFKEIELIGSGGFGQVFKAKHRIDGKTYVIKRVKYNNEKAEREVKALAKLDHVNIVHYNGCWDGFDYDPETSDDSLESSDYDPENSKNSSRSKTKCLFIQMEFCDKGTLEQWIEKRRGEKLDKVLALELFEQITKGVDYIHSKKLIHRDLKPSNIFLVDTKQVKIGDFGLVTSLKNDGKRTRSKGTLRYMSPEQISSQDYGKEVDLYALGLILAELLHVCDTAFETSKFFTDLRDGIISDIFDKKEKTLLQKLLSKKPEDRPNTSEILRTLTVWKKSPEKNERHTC

Assays:
GST–LRP16 fusion protein = GST–LRP16 fusion protein (UniProt Q9BQ69); assay: pull-down; GST–LRP16 on glutathione agarose / GSH–Sepharose beads incubated with in vitro-translated proteins; retained proteins immunoblotted; only the target purified
[1] = target: Leukemia-Related Protein 16 (LRP16), endogenous (human (endogenous in SW480, SW620, HCT116)) (UniProt Q9BQ69); assay: co-IP; endogenous proteins, SW480 cell lysates, etoposide for the indicated periods; with or without ethidium bromide in the lysate; anti-LRP16 IP in Figure 6—figure supplement 1E (no MRS2578)
[2] = target: Leukemia-Related Protein 16 (LRP16), endogenous (human (endogenous in SW480, SW620, HCT116)) (UniProt Q9BQ69); assay: co-IP; endogenous proteins, HCT116+/+ or HCT116−/− (TP53-null) cells treated with etoposide (50 μM) for the indicated periods
[3] = target: FLAG-tagged LRP16 expressed in SW480 cells (UniProt Q9BQ69); assay: co-IP; nuclear fractions of SW480 cells expressing FLAG–LRP16, etoposide (50 μM) for the indicated periods
[4] = target: Leukemia-Related Protein 16 (LRP16), endogenous (human (endogenous in SW480, SW620, HCT116)) (UniProt Q9BQ69); assay: co-IP; nuclear fractions of SW620 cells treated with etoposide (50 μM) for the indicated periods, endogenous proteins
[5] = target: Leukemia-Related Protein 16 (LRP16), endogenous (human (endogenous in SW480, SW620, HCT116)) (UniProt Q9BQ69); assay: co-IP; cytosolic fractions of SW620 cells treated with etoposide (50 μM) for the indicated periods, endogenous proteins
[6] = target: FLAG-tagged LRP16 expressed in SW480 cells (UniProt Q9BQ69); assay: co-IP; cytosolic fractions of SW480 cells expressing FLAG–LRP16 (or control vector), etoposide (50 μM) for the indicated periods
[7] = target: Leukemia-Related Protein 16 (LRP16), endogenous (human (endogenous in SW480, SW620, HCT116)) (UniProt Q9BQ69); assay: co-IP; endogenous proteins, SW480 cell lysates, etoposide for the indicated periods; with or without ethidium bromide in the lysate; anti-LRP16 IP in Figure 6—figure supplement 1E (no MRS2578); remark: listed apart in the source
[8] = target: Leukemia-Related Protein 16 (LRP16), endogenous (human (endogenous in SW480, SW620, HCT116)) (UniProt Q9BQ69); assay: co-IP; endogenous proteins, SW620 cell lysates, cells transfected with control, LRP16 or PKR siRNAs, with or without etoposide; IP with anti-PKR (Figure 4I) or anti-LRP16 (Figure 5—figure supplement 1D)
[9] = target: double-stranded RNA-dependent protein kinase PKR, endogenous (human (endogenous in SW480, SW620, HCT116)) (UniProt P19525); assay: as above
[10] = target: double-stranded RNA-dependent protein kinase PKR, endogenous (human (endogenous in SW480, SW620, HCT116)) (UniProt P19525); assay: co-IP; cytosolic fractions of SW480 cells expressing FLAG–LRP16 (or control vector), etoposide (50 μM) for the indicated periods

Molecule	binding (GST–LRP16 fusion protein)	binding [1]	binding [2]	binding [3]	binding [4]	binding [5]	binding [6]	binding [7]	binding [8]	binding [9]	binding [10]
in vitro-translated FLAG–PKR (wild type, full-length) (from UniProt P19525 1-551)	binds										
double-stranded RNA-dependent protein kinase PKR, endogenous (from UniProt P19525 1-551)		binds	binds	binds weakly	binds weakly	binds	binds				
in vitro-translated IKKβ (protein, UniProt O14920 1-756) MSWSPSLTTQTCGAWEMKERLGTGGFGNVIRWHNQETGEQIAIKQCRQELSPRNRERWCLEIQIMRRLTHPNVVAARDVPEGMQNLAPNDLPLLAMEYCQGGDLRKYLNQFENCCGLREGAILTLLSDIASALRYLHENRIIHRDLKPENIVLQQGEQRLIHKIIDLGYAKELDQGSLCTSFVGTLQYLAPELLEQQKYTVTVDYWSFGTLAFECITGFRPFLPNWQPVQWHSKVRQKSEVDIVVSEDLNGTVKFSSSLPYPNNLNSVLAERLEKWLQLMLMWHPRQRGTDPTYGPNGCFKALDDILNLKLVHILNMVTGTIHTYPVTEDESLQSLKARIQQDTGIPEEDQELLQEAGLALIPDKPATQCISDGKLNEGHTLDMDLVFLFDNSKITYETQISPRPQPESVSCILQEPKRNLAFFQLRKVWGQVWHSIQTLKEDCNRLQQGQRAAMMNLLRNNSCLSKMKNSMASMSQQLKAKLDFFKTSIQIDLEKYSEQTEFGITSDKLLLAWREMEQAVELCGRENEVKLLVERMMALQTDIVDLQRSPMGRKQGGTLDDLEEQARELYRRLREKPRDQRTEGDSQEMVRLLLQAIQSFEKKVRVIYTQLSKTVVCKQKALELLPKVEEVVSLMNEDEKTVVRLQEKRQKELWNLLKIACSKVRGPVSGSPDSMNASRLSQPGQLMSQPSTASNSLPEPAKKSEELVAEAHNLCTLLENAIQDTVREQDQSFTALDWSWLQTEEEEHSCLEQAS	binds										
IKKβ, endogenous (protein, UniProt O14920 1-756) MSWSPSLTTQTCGAWEMKERLGTGGFGNVIRWHNQETGEQIAIKQCRQELSPRNRERWCLEIQIMRRLTHPNVVAARDVPEGMQNLAPNDLPLLAMEYCQGGDLRKYLNQFENCCGLREGAILTLLSDIASALRYLHENRIIHRDLKPENIVLQQGEQRLIHKIIDLGYAKELDQGSLCTSFVGTLQYLAPELLEQQKYTVTVDYWSFGTLAFECITGFRPFLPNWQPVQWHSKVRQKSEVDIVVSEDLNGTVKFSSSLPYPNNLNSVLAERLEKWLQLMLMWHPRQRGTDPTYGPNGCFKALDDILNLKLVHILNMVTGTIHTYPVTEDESLQSLKARIQQDTGIPEEDQELLQEAGLALIPDKPATQCISDGKLNEGHTLDMDLVFLFDNSKITYETQISPRPQPESVSCILQEPKRNLAFFQLRKVWGQVWHSIQTLKEDCNRLQQGQRAAMMNLLRNNSCLSKMKNSMASMSQQLKAKLDFFKTSIQIDLEKYSEQTEFGITSDKLLLAWREMEQAVELCGRENEVKLLVERMMALQTDIVDLQRSPMGRKQGGTLDDLEEQARELYRRLREKPRDQRTEGDSQEMVRLLLQAIQSFEKKVRVIYTQLSKTVVCKQKALELLPKVEEVVSLMNEDEKTVVRLQEKRQKELWNLLKIACSKVRGPVSGSPDSMNASRLSQPGQLMSQPSTASNSLPEPAKKSEELVAEAHNLCTLLENAIQDTVREQDQSFTALDWSWLQTEEEEHSCLEQAS				binds weakly	binds weakly	binds	binds	binds	binds	binds	binds
